The term AC50 denotes the midpoint of the concentration-response curve, whichever way the signal moves.

The results in this text go back to PubChem BioAssay AID445 (National Center for Advancing Translational Sciences (NCATS), 2006).

Some of the results follow. Shown are side measurements of this screen, not its main read-out; they come without a call. Compounds called inactive in the main read-out are mostly missing here. The note in brackets gives the kind of curve behind each potency; many fits are weak.

The experiment is described as follows: IkB Signaling. As to conditions: ABC-DLBCL IkBa-CBG/CBR dual luciferase ratio (green luciferase fused to IkBa over red control in OCI-Ly3 lymphoma cells), 4 h. The gist of the method: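 In this assay, an IκBα–CBG68 fusion accumulates when IKK-driven degradation is blocked; native CBR normalizes for cell number. OCI-Ly3 cells were treated 4 h with compound and doxycycline, then green and red light read after Chroma-Glo addition.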
Setting [1] is: measured here: control luc red channel unless noted.

As for `COc1ccc(NC(=O)c2cc3c(s2)-c2c(C)cccc2OC3)c(OC)c1`, the AC50 under setting [1] was 12.6 µM [falling, partial curve].
On to `CCCCNc1nc(Oc2ccc(=O)[nH]n2)nc(N(C)C)n1`, for which, under setting [1], the half-maximal activity concentration (AC50) is 6.31 µM [rising, single point].
As for `CCOC(=O)c1cccc(NC(=O)c2cc3c(=O)n(Cc4ccccc4)ccc3nc2C)c1`, the half-maximal activity concentration (AC50) under setting [1] was 15.8 µM [falling, partial curve].
The same measure, in the same setting: for `COc1ccccc1-c1noc(-c2ccc(N3CCC(C)CC3)c([N+](=O)[O-])c2)n1` the value was 20 µM [falling, partial curve]; for `COc1cc(C(=O)Nc2cc3c(cc2C)n(C)c(=O)c(=O)n3C)cc(OC)c1OC`, 20 µM [falling, partial curve].
In the case of `CCOC(=O)C1CCCN(c2ncnc3c2cnn3-c2ccc(Cl)cc2)C1` (stereo unspecified), the half-maximal activity concentration (AC50) under setting [1] is 15.8 µM [falling, partial curve].
In the case of `CCC(=O)N1CCc2cc(S(=O)(=O)NC(Cc3ccccc3)C(=O)Nc3ccc(C)cc3)ccc21` (stereo unspecified), the AC50 under setting [1] is 12.6 µM [falling, partial curve, poor fit].
With `O=C(Nc1ccc(-c2cn3ccsc3n2)cc1)C1COc2ccccc2O1` (stereo unspecified), the concentration at half-maximal activity (AC50) under setting [1] was 20 µM [falling, partial curve].
On to `CCOc1ccc(-n2c(SCc3ccc(C(=O)OC)o3)nc3c([nH]c4ccccc43)c2=O)cc1`, for which the half-maximal activity concentration (AC50) under setting [1] is 1 µM [rising, single point].
In the case of `CCN1C(=O)c2ccccc2Sc2ccc(NC(C)=O)cc21`, the AC50 under setting [1] is 7.94 µM [falling, full curve, poor fit].
For `CCOC(=O)COc1ccc(-c2nnc(-c3ccccc3)o2)cc1`, the AC50 under setting [1] was 3.16 µM [falling, single point].
As for `CC1=C(C(=O)OC2CCCCCC2)C(c2c(F)cccc2Cl)CC(=O)N1` (stereo unspecified), under setting [1], the concentration at half-maximal activity (AC50) is 25.1 µM [falling, partial curve].
Still for that read-out and setting: for `CCOC(=O)Cn1c(=O)oc2cc(S(=O)(=O)Nc3cccc(C)c3)ccc21` the value was 25.1 µM [falling, partial curve]; for `COc1ccc(N(Cc2cccs2)C(=O)COc2cccc(Cl)c2)cc1`, 12.6 µM [falling, partial curve].
For `Cc1ccc(NC(=O)N2CCC(c3nc4c(nnn4Cc4cccc(Cl)c4)c(=O)[nH]3)CC2)cc1`, the AC50 under setting [1] is 25.1 µM [falling, single point].
With `CCOC(=O)c1c(Nc2ccc(C)cc2)nnc(-c2ccccc2)c1-c1ccccc1`, under setting [1], the AC50 was 7.94 µM [falling, full curve].
Take `COc1ccc(NCc2cc3cc4c(cc3n(CC(=O)Nc3ccc(F)cc3F)c2=O)OCO4)cc1`: the AC50 under setting [1] is 12.6 µM [falling, partial curve, poor fit].
As to `COc1ccc2c(C)c(CCC(=O)NCCc3ccccc3OC)c(=O)oc2c1`, the AC50 under setting [1] was 31.6 µM [falling, single point].
The same measure, in the same setting: with `CCc1ccccc1NS(=O)(=O)c1ccc(OC)c2ncccc12` the figure was 7.94 µM [falling, partial curve].
For `CCC1CCCCN1C(=O)c1ccc2c(c1)N(Cc1cccc(Cl)c1)C(=O)c1ccccc1S2(=O)=O` (stereo unspecified), under setting [1], the AC50 is 20 µM [falling, partial curve].
Take `O=C(CN(Cc1ccc2c(c1)OCO2)C(=O)CSc1nc2ccccc2o1)NC1CCCCC1`: the AC50 under setting [1] was 25.1 µM [falling, partial curve].
Consider `COC(=O)CCSc1nc2sc3c(c2c(=O)n1Cc1ccccc1)CCC(C(C)(C)C)C3` (stereo unspecified), for which the AC50 under setting [1] is 12.6 µM [falling, partial curve].
`CCOc1cc(C2C(C(=O)OC)=C(C)NC3=C2C(=O)c2ccccc23)cc(Cl)c1O` (stereo unspecified): the AC50 under setting [1] was 25.1 µM [falling, partial curve].
Same read-out and setting: with `Cc1ccc(-n2ncc3c(NCCCN4CCOCC4)ncnc32)cc1` the figure was 7.94 µM [falling, full curve]; with `COC(=O)CSc1nnc(SCc2ccccc2)s1`, 6.31 µM [falling, full curve].
As to `CCn1c2ccccc2c2nnc(N3CCN(c4cc(C)ccc4C)CC3)nc21`, the AC50 under setting [1] is 20 µM [falling, partial curve].
In the case of `COc1ccc(NC(=O)CN(Cc2ccccc2)S(=O)(=O)c2ccc(C)cc2)cc1Cl`, the AC50 under setting [1] was 25.1 µM [falling, partial curve].
As for `CCOc1ccccc1NC(=O)c1cc2c(Cl)nc3ccccc3c2s1`, under setting [1], the concentration at half-maximal activity (AC50) is 0.126 µM [falling, full curve].
`CCOC(=O)c1c(OCC)[nH]c2c1cc(O)c1ccccc12`: the AC50 under setting [1] was 10 µM [falling, partial curve].
Regarding `CCC(C)N(CCNC(=O)CC1Oc2ccccc2NC1=O)C1CCCCC1` (stereo unspecified), under setting [1], the AC50 is 12.6 µM [falling, partial curve].
In the case of `CCOC(=O)c1c(N)n(-c2cccc(OC)c2)c2nc3ccccc3nc12`, the AC50 under setting [1] is 12.6 µM [rising, partial curve].
As for `Cc1ccc(C)n1-c1c(C(=O)NCCC(C)C)sc2ncccc12`, the half-maximal activity concentration (AC50) under setting [1] is 25.1 µM [falling, single point].
On to `Cc1oc2ncn(CC(C)C)c(=O)c2c1C(=O)N1CCN(c2cccc(C(F)(F)F)c2)CC1`, for which the AC50 under setting [1] is 20 µM [falling, single point].
For `CCOC(=O)C1CCN(C(=O)Cn2c(=O)cc(C)c3c(C)nn(C)c32)CC1`, the AC50 under setting [1] was 25.1 µM [falling, partial curve].
Turning to `COc1ccc(-c2cc(C(=O)N(C)Cc3ccccc3)no2)cc1OC`, the AC50 under setting [1] was 1.26 µM [falling, full curve].
As for `COc1cc(-c2nc3nc[nH]n3c2Nc2ccc(C(C)C)cc2)ccc1O`, the AC50 (measured here: IkB-luc green channel) is 3.16 µM [rising, partial curve] and the AC50 (measured here: control luc red channel) was 39.8 µM [falling, single point].
For `Cc1cccc(-n2ncc3c(Nc4ccc(Oc5ccc(Cl)cc5)cc4)ncnc32)c1`, the AC50 under setting [1] is 39.8 µM [falling, partial curve].
`Cc1ccn2c(Nc3ccccc3C)c(-c3ccccn3)nc2c1`: the half-maximal activity concentration (AC50) under setting [1] was 25.1 µM [falling, partial curve].
`COc1cc(C(=O)Nc2nc3nc(-c4ccccc4)cc(=O)n3[nH]2)cc(OC)c1OC`: the half-maximal activity concentration (AC50) under setting [1] was 25.1 µM [falling, single point].
Regarding `O=C(c1n[nH]c(=O)c2ccccc12)N1CCN(C2c3ccccc3-c3ccccc32)CC1`, the AC50 under setting [1] was 12.6 µM [falling, partial curve].
